According to patent US8492614B2, “Plant biochemical systems and uses thereof” (The Board of Trustees of the University of Illinois, priority 2007, dated 2013):

Assay: Degradation of the compound in buffered solution
Conditions: first 30 minutes at room temperature

**Q.** For `O=C(O)C(=O)CC1(C(=O)O)C=CC(O)C=C1` (stereo not shown) [Prephenate, prephenate], which rate of degradation is on record?
**A.** 15-18%
